According to publication doi:10.1101/500082:
Results are given in words; binding and its absence hold for the method and conditions named. In cells and extracts the contact can be indirect. Some entries that bind do so weakly or less than the wild type. Where a sequence is shown, tags or fusion partners need not be part of it.

T1: GFP-Rabenosyn-5 (human) (UniProt Q9H1K0)
T1 sequence: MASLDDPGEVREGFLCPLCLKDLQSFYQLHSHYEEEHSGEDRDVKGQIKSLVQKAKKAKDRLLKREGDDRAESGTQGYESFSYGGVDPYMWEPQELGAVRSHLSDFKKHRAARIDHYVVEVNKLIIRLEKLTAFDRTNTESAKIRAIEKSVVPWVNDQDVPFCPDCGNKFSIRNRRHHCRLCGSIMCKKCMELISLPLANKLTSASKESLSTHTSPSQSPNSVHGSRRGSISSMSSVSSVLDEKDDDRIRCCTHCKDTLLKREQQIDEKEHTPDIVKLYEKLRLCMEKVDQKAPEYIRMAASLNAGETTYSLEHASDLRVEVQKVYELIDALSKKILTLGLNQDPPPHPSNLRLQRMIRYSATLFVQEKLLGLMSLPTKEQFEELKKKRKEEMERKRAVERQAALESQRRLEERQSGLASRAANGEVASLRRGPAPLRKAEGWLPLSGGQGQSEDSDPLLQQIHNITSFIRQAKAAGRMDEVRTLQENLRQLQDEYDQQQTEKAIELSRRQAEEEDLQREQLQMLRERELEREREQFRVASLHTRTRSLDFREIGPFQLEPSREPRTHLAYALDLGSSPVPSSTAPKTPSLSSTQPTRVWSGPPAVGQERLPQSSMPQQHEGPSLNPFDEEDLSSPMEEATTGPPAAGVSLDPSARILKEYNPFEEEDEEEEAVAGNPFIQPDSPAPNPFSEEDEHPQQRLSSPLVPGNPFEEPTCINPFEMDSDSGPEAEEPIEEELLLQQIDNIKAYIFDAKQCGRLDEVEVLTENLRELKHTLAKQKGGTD


Target: T1, GFP-Rabenosyn-5 (human)
Experiment: co-IP

binding	Binder
binds	myc-Rab11FIP5 (protein, UniProt Q9BXF6 1-653) MALVRGAEPAAGPSRWLPTHVQVTVLRARGLRGKSSGAGSTSDAYTVIQVGREKYSTSVVEKTHGCPEWREECSFELPPGALDGLLRAQEADAGPAPWAASSAAACELVLTTMHRSLIGVDKFLGQATVALDEVFGAGRAQHTQWYKLHSKPGKKEKERGEIEVTIQFTRNNLSASMFDLSMKDKPRSPFSKIRDKMKGKKKYDLESASAILPSSAIEDPDLGSLGKMGKAKGFFLRNKLRKSSLTQSNTSLGSDSTLSSASGSLAYQGPGAELLTRSPSRSSWLSTEGGRDSAQSPKLFTHKRTYSDEANQMRVAPPRALLDLQGHLDAASRSSLCVNGSHIYNEEPQGPVRHRSSISGSLPSSGSLQAVSSRFSEEGPRSTDDTWPRGSRSNSSSEAVLGQEELSAQAKVLAPGASHPGEEEGARLPEGKPVQVATPIVASSEAVAEKEGARKEERKPRMGLFHHHHQGLSRSELGRRSSLGEKGGPILGASPHHSSSGEEKAKSSWFGLREAKDPTQKPSPHPVKPLSAAPVEGSPDRKQSRSSLSIALSSGLEKLKTVTSGSIQPVTQAPQAGQMVDTKRLKDSAVLDQSAKYYHLTHDELISLLLQRERELSQRDEHVQELESYIDRLLVRIMETSPTLLQIPPGPPK
binds	myc-VIPAS39 (protein, UniProt Q9H9C1 1-493) MNRTKGDEEEYWNSSKFKAFTFDDEDDELSQLKESKRAVNSLRDFVDDDDDDDLERVSWSGEPVGSISWSIRETAGNSGSTHEGREQLKSRNSFSSYAQLPKPTSTYSLSSFFRGRTRPGSFQSLSDALSDTPAKSYAPELGRPKGEYRDYSNDWSPSDTVRRLRKGKVCSLERFRSLQDKLQLLEEAVSMHDGNVITAVLIFLKRTLSKEILFRELEVRQVALRHLIHFLKEIGDQKLLLDLFRFLDRTEELALSHYREHLNIQDPDKRKEFLKTCVGLPFSAEDSAHIQDHYTLLERQIIIEANDRHLESAGQTEIFRKHPRKASILNMPLVTTLFYSCFYHYTEAEGTFSSPVNLKKTFKIPDKQYVLTALAARAKLRAWNDVDALFTTKNWLGYTKKRAPIGFHRVVEILHKNNAPVQILQEYVNLVEDVDTKLNLATKFKCHDVVIDTYRDLKDRQQLLAYRSKVDKGSAEEEKIDALLSSSQIRWKN
binds	myc-EHD1 (protein, UniProt Q9H4M9 1-534) MFSWVSKDARRKKEPELFQTVAEGLRQLYAQKLLPLEEHYRFHEFHSPALEDADFDNKPMVLLVGQYSTGKTTFIRHLIEQDFPGMRIGPEPTTDSFIAVMHGPTEGVVPGNALVVDPRRPFRKLNAFGNAFLNRFMCAQLPNPVLDSISIIDTPGILSGEKQRISRGYDFAAVLEWFAERVDRIILLFDAHKLDISDEFSEVIKALKNHEDKIRVVLNKADQIETQQLMRVYGALMWSLGKIINTPEVVRVYIGSFWSHPLLIPDNRKLFEAEEQDLFKDIQSLPRNAALRKLNDLIKRARLAKVHAYIISSLKKEMPNVFGKESKKKELVNNLGEIYQKIEREHQISPGDFPSLRKMQELLQTQDFSKFQALKPKLLDTVDDMLANDIARLMVMVRQEESLMPSQVVKGGAFDGTMNGPFGHGYGEGAGEGIDDVEWVVGKDKPTYDEIFYTLSPVNGKITGANAKKEMVKSKLPNTVLGKIWKLADVDKDGLLDDEEFALANHLIKVKLEGHELPADLPPHLVPPSKRRHE
